Test results reported in paper PMC3281051.
The exact form of at least one protein or probe is not confirmed. For some assays here: Protein sequences can lack the tags named with them.

Key:
VEGF165 (human) = assay: SPR; details: SPR (BIAcore 2000, CM5): PBS + 0.005% Tween-20, 25 C, 30 ul/min, aptamer 0.2-100 nM, 1:1 Langmuir fit; commercial protein; protein details: carrier-free; single-stranded DNA; letters put together from the description
[1] = tested on: T1, VEGF165 heparin-binding domain; assay: binding assay; details: SPR (BIAcore 2000, CM5): PBS + 0.005% Tween-20, 25 C, 30 ul/min, aptamer 0.2-100 nM, 1:1 Langmuir fit; cells: culture medium, 37 C, 2 h, 1% O2; recombinant protein; single-stranded DNA
T1 sequence (looked up, limits assumed): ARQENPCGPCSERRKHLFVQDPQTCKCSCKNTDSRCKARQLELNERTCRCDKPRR

| Sequence | Kd (VEGF165 (human)) | Kd [1] |
| --- | --- | --- |
| ATACCAGTCTATTCAATTGGGCCCGTCCGTATGGTGGG [SL12] | 5 nM |  |
| ATACCAGTCTATTCAATTGGGCCCGTCCGTATGGTGGGTGTGCTGGCCAGATAGTATGTGCAATCA [VEa5] |  | 130 nM |
